Experimental data: patent US20240182456A1, “2-((4-((S)-2-(4-CHLORO-2-FLUOROPHENYL)-2-METHYLBENZO[D][1,3]DIOXOL-4-YL)PIPERIDIN-1-YL)METHYL)-1-(((S)-OXETAN-2-YL)METHYL)-1H-IMIDAZOLE DERIVATIVES AS ACTIVATORS OF THE GLP1 RECEPTOR FOR THE TREATMENT OF OBESITY” (Novartis AG, priority 2021, published 2024)

Amino acid sequences for entries named in this document (tags omitted). Residues count along the entry.
UniProt P43220, 24-463 limits assumed: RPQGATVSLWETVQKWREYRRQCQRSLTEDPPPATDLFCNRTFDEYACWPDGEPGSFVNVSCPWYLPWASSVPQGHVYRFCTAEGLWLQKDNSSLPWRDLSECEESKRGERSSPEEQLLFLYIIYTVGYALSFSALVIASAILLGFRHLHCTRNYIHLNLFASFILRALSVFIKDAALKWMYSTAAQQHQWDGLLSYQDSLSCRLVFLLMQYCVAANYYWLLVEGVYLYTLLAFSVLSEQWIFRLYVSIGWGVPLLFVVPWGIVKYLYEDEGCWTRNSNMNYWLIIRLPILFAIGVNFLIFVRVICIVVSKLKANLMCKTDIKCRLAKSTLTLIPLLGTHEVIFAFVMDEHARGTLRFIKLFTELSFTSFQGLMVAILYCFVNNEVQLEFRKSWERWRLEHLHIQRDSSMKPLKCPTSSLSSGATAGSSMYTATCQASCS

Biological target: human GLP1R (hGLP1R) (Homo sapiens, UniProt P43220)
Assay: Human GLP1R cAMP agonist assay (GloSensor)
Type: cell-based
Details: HEK293-SNAP-hGLP1R-GloSensor cells; for EC50: read-out: EC50 mean, intracellular cAMP, mean n=3 where SEM is given
Method: Compounds 1 to 31 were tested in the following cellular assays that measure the intracellular cAMP concentration, beta-arrestin recruitment and receptor internalization. The cAMP is generated by the activation of GLP1R. The cAMP data obtained is shown in Table 1 (where S.E.M. is included, mean n=3 independent experiments+/−S.E.M). Beta-arrestin is recruited upon activation of GLP1R and the data obtained are shown in Table 2 (mean n=2 independent experiments, +/−S.D). The extent to which the GLP1R is internalized into the cell and away from the plasma membrane following activation is also shown in Table 2 (mean n=2 independent experiments, +/−S.D). EC50 for each assay is defined as the concentration of the compound that leads to half of the maximum response (after baseline correction). Emax is defined as the maximum response observed for the test compound, normalized to the maximum response observed for the endogenous ligand (GLP1(7-36)) to GLP1R.
Human GLP1R cAMP Agonist Assay
The agonist activity of compounds was determined using the GloSensor™ cAMP Assay (Promega Corp.), which measures changes in the intracellular concentration of cAMP after ligand activation of GPCRs. The assay uses a biosensor encoded by pGloSensor™-22F cAMP plasmid (Promega, cat #E2301) with cAMP binding domains fused to a mutant form of Photinus pyralis luciferase. Binding to cAMP causes conformational changes that promote large increases in light output, which can be measured by a luminescence detector. […] Luminescence was then measured with an Envision 2104 Multilabel reader with “TRF Light Unit, 337 nm” (PerkinElmer) using the Ultra-Sensitive protocol setting “384-well US luminescence detector” with the 384-well luminescence aperture, 0.1 seconds per well. cAMP activity was calculated as percent of the GLP1 (7-36) EC100 control wells: [(sample signal−mean EC0 signal)/(mean EC100 of GLP1 (7-36) signal−mean EC0 signal)}*100. […] The EC50 value was represented by the AC50 value calculated from Helios in μM. Emax is the maximal activity detected within the concentration range, derived from the fitted curve. […]

Structure (SMILES): Cc1c(-c2ccc(C(=O)O)o2)nc(CN2CCC(c3cccc4c3O[C@@](C)(c3ccc(Cl)cc3F)O4)CC2)n1C[C@@H]1CCO1
- EC50: 0.178 nM

Structure (SMILES): Cc1c(-c2cc(F)cc(C(=O)O)c2)nc(CN2CCC(c3cccc4c3O[C@@](C)(c3ccc(Cl)cc3F)O4)CC2)n1C[C@@H]1CCO1
- Emax mean (cAMP, normalized to GLP1(7-36) maximum response): 109%
- EC50: 0.607 nM

The match of structure and compound is tentative.
